Assay results as given in patent US20160046678A1 (ZYNGENIA, published 2016).
These are yes or no findings as the source states them, for the method shown. Some results given as binding are weak or reduced against the parent protein; the word gives no strength.

T1: Angiopoietin-2 (Ang2) (human, UniProt O15123 19-496, biotin label in Examples 22-24)
T1 construct: also called rhAng2; recombinant Ang2
T1 sequence (looked up): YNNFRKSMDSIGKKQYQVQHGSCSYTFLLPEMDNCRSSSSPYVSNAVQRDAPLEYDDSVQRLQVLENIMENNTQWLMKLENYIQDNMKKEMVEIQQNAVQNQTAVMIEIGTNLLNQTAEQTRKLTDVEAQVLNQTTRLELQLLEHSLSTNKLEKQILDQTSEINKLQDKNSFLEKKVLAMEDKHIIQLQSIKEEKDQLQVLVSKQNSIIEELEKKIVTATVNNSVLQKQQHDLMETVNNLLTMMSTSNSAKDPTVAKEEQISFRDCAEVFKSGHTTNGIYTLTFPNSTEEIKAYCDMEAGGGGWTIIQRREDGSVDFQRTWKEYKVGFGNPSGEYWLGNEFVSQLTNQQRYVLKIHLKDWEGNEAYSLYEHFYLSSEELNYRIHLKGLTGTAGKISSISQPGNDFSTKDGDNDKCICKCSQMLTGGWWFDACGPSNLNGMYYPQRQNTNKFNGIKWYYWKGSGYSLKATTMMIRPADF


target: T1, Angiopoietin-2 (Ang2); test: Example 48, method not detailed

| Binder | binding |
| --- | --- |
| RLHDCYFYPNPPHCYLWQ [ANG182] | binds |
| SSGPDIDCYFYPNPPHCY [ANG186] | binds |
| DCYFYPNPLYCYEDWDYT [ANG187] | binds |
| IWLDCYFYPNPPHCSLNS [ANG188] | binds |
| QWNDCYFYPNPPHCYGRQ [ANG189] | binds |
| GHMDCYYYPNPSHCYQQL [ANG190] | binds |
| WLSQCYSYPNPPHCYTLF [ANG192] | binds |
| SSLHMLDCYYYPNPPHCY [ANG193] | binds |
| QSLSFLDCYFYPNPLHCY [ANG194] | binds |
| NYYYCYLSPNPPHCYLSF [ANG197] | binds |
| HFSDCYYFPNPPHCYESI [ANG198] | binds |
| EVLDCFFYPNPPHCYKAL [ANG199] | binds |
| RDTDCYFYPNPAHCYLGT [ANG201] | binds |
| KCPMLPDWVSCDEWMLQK [ANG203] | binds |
| LSLKCPLLPDWISCDEYY [ANG210] | binds |
| KCPLLPDWLSCLEWQLME [ANG211] | binds |
| KCPLLPDWVPCHEWLNVW [ANG215] | binds |
| AMSLCPLLPDWASCNDYL [ANG217] | binds |
| LCPRLPDWVSCHTWLERY [ANG218] | binds |
| LSTKCPLLPDWVSCHEWL [ANG219] | binds |
| LGWTELKCPLLPDWATCN [ANG220] | binds |
| KCPLLPDWVSCHEWNVWL [ANG222] | binds |

| Binder | binding |
| --- | --- |
| KCPLLPDWISCAQWQRAV [ANG223] | binds |
| VGSLCPLLPDWASCHEWL [ANG224] | binds |
| RCPFLPDWLSCNEWLMIE [ANG225] | binds |
| WYRKCPLLPDWVSCHEWY [ANG228] | binds |
| TTLNCPLLPDWLTCQEFL [ANG229] | binds |
| KCPLLPDWASCESWLEVR [ANG231] | binds |
| HLDKCPLLPDWISCTDWL [ANG232] | binds |
| KCPLLPDWVTCDEFQGMQ [ANG233] | binds |
| ATSKCPLLPDWVSCDEHL [ANG239] | binds |
| SSGKCPLLPDWKSCDEWL [ANG241] | binds |
| KCPLLPDWVSCHEWNIRE [ANG242] | binds |
| KCPLLPDWFSCHEYQEMF [ANG245] | binds |
| KCPLLPDWVSCHTYLEES [ANG246] | binds |
| EPPKCPMLPDWVSCDTWL [ANG247] | binds |
| DVPHQLNCPLLPDWAACL [ANG248] | binds |
| EISKCPLLPDWVSCYQWL [ANG249] | binds |
| MNVKCPLLPDWVSCLDYL [ANG250] | binds |
| MLMKCPLLPDWASCDVWL [ANG252] | binds |
| LMHECPLLPDWVSCHTFL [ANG256] | binds |
| KCPLLPDWVSCETYLNGD [ANG257] | binds |
| KCPLLPDWVSCDMYLERQ [ANG258] | binds |
| KCPLLPDWASCDQWNEWN [ANG259] | binds |

| Binder | binding |
| --- | --- |
| YVSKCPFLPDWVSCHGWL [ANG263] | binds |
| KCPFLPDWVSCHDYSQKY [ANG266] | binds |
| FPPKCPLRPDWVSCHERH [ANG267] | binds |
| ECPLLPDWVSCHEWNRLH [ANG269] | binds |
| SPVKCPFLPDWISCDLYL [ANG270] | binds |
| TAFKCPPLPDWVSCLDWL [ANG272] | binds |
| KCPLLPDWVSCQEWLSSK [ANG274] | binds |
| HYDKCPLLPDWVSCHEFL [ANG275] | binds |
| GLRKCPVLPDWVSCDNWL [ANG277] | binds |
| SGFKCPLLPDWVSCTDCT [ANG278] | binds |
| LASKCPLLPDWISCQTWL [ANG279] | binds |
| KCPLLPDWVSCDQWRLLE [ANG280] | binds |
| YFDKCPLLPDWLTCHEWM [ANG281] | binds |
| LPSKCPLLPDWTSCDEYL [ANG284] | binds |
| PWPDCPVYRYCRHCHHKT [ANG339] | binds |
| TGSTAKYCQDYPGWRYCH [ANG355] | binds |
| LPMECYFYPNPEHCYLVP [ANG358] | binds |
| TYTKCMTYPNPQYCFKHS [ANG370] | binds |
| RFLECAWFPTPYFCHESE [ANG371] | binds |
| QYDPCEYYIPCVKWG [ANG374] | binds |
